Test results taken from the supplement of paper PMC10849652.
Some of the results follow.

By UniProt entry, the sequences of proteins in these tests, tags left out. Where a name states a change or a piece, a line headed by the entry shows the natural chain unless it says otherwise.
UniProt O00499: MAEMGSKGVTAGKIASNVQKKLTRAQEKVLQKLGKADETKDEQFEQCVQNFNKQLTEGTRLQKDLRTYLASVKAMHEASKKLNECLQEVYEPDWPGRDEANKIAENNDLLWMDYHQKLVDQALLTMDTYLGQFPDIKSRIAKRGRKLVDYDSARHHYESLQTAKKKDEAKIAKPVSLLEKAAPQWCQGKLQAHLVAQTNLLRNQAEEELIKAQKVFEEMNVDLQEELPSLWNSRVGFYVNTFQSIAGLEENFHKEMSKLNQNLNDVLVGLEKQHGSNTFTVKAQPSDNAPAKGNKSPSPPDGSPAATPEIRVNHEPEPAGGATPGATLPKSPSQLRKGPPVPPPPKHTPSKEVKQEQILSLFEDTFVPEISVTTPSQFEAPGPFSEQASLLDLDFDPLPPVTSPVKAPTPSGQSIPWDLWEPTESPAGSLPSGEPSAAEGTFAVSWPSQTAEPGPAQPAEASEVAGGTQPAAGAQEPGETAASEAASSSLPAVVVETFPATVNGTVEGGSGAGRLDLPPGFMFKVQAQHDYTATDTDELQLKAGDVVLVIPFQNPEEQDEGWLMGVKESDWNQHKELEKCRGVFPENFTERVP
UniProt Q9HCU9: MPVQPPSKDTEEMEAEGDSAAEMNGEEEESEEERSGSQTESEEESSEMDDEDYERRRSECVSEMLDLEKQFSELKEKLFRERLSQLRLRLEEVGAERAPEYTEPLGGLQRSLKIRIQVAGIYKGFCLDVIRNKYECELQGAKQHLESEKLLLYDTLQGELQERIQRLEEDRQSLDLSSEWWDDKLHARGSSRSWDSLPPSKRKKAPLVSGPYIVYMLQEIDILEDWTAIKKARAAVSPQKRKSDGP
UniProt Q8IXM2, whole entry, looked up: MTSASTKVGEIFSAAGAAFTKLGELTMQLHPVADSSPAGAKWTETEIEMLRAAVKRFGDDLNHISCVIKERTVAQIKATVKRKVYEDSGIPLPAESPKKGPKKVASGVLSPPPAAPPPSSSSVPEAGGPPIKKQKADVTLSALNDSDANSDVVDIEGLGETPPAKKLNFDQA
UniProt Q8WY22: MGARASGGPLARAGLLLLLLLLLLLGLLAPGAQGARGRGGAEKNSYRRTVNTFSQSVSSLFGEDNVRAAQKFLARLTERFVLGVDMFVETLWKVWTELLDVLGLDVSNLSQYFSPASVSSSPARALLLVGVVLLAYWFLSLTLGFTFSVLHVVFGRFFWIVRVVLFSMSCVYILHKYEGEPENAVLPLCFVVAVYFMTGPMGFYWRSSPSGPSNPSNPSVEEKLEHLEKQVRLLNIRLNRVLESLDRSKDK
UniProt Q16611: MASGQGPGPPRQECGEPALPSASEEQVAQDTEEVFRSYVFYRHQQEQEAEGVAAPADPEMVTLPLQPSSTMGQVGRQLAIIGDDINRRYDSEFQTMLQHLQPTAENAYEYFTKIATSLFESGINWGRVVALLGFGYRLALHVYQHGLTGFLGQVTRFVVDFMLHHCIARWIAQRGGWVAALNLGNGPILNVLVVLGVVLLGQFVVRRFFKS
UniProt Q5T5X7: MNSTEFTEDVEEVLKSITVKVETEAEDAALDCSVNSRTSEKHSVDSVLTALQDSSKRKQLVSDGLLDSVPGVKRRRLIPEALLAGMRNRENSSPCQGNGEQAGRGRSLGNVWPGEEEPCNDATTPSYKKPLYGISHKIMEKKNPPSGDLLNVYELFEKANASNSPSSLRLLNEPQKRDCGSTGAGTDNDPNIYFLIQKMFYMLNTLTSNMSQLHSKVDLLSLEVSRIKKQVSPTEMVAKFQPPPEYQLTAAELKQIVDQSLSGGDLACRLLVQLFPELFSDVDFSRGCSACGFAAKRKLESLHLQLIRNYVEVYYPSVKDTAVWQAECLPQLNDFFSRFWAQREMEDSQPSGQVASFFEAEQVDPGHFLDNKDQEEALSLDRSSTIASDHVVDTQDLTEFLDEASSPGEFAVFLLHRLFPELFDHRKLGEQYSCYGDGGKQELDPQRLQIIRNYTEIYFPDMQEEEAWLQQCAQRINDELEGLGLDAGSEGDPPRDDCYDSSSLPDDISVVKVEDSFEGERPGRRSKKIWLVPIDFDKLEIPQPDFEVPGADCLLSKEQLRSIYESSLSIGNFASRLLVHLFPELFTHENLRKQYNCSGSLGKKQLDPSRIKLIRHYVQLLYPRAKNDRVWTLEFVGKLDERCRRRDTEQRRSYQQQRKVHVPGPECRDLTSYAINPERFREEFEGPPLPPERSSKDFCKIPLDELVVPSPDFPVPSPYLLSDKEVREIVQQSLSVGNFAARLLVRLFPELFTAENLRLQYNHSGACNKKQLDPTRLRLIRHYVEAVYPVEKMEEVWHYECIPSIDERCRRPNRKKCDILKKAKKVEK
UniProt Q06187: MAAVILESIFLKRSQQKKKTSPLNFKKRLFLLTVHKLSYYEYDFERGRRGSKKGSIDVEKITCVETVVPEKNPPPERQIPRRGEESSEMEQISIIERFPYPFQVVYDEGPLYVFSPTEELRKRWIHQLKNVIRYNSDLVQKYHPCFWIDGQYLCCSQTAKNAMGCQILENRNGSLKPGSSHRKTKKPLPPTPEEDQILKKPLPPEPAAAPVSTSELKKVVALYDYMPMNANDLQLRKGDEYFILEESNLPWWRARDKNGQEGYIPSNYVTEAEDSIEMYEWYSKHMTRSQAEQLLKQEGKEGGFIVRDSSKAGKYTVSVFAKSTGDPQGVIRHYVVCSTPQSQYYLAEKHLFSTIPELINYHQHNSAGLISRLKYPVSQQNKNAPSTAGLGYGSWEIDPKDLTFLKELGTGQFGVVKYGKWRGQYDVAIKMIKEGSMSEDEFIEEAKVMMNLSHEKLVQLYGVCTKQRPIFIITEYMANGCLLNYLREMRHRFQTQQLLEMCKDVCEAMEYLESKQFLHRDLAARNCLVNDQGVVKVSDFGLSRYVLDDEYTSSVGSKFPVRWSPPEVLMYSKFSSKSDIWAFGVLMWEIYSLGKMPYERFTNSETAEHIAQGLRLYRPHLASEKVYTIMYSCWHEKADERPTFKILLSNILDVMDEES
UniProt P51587, whole entry, looked up: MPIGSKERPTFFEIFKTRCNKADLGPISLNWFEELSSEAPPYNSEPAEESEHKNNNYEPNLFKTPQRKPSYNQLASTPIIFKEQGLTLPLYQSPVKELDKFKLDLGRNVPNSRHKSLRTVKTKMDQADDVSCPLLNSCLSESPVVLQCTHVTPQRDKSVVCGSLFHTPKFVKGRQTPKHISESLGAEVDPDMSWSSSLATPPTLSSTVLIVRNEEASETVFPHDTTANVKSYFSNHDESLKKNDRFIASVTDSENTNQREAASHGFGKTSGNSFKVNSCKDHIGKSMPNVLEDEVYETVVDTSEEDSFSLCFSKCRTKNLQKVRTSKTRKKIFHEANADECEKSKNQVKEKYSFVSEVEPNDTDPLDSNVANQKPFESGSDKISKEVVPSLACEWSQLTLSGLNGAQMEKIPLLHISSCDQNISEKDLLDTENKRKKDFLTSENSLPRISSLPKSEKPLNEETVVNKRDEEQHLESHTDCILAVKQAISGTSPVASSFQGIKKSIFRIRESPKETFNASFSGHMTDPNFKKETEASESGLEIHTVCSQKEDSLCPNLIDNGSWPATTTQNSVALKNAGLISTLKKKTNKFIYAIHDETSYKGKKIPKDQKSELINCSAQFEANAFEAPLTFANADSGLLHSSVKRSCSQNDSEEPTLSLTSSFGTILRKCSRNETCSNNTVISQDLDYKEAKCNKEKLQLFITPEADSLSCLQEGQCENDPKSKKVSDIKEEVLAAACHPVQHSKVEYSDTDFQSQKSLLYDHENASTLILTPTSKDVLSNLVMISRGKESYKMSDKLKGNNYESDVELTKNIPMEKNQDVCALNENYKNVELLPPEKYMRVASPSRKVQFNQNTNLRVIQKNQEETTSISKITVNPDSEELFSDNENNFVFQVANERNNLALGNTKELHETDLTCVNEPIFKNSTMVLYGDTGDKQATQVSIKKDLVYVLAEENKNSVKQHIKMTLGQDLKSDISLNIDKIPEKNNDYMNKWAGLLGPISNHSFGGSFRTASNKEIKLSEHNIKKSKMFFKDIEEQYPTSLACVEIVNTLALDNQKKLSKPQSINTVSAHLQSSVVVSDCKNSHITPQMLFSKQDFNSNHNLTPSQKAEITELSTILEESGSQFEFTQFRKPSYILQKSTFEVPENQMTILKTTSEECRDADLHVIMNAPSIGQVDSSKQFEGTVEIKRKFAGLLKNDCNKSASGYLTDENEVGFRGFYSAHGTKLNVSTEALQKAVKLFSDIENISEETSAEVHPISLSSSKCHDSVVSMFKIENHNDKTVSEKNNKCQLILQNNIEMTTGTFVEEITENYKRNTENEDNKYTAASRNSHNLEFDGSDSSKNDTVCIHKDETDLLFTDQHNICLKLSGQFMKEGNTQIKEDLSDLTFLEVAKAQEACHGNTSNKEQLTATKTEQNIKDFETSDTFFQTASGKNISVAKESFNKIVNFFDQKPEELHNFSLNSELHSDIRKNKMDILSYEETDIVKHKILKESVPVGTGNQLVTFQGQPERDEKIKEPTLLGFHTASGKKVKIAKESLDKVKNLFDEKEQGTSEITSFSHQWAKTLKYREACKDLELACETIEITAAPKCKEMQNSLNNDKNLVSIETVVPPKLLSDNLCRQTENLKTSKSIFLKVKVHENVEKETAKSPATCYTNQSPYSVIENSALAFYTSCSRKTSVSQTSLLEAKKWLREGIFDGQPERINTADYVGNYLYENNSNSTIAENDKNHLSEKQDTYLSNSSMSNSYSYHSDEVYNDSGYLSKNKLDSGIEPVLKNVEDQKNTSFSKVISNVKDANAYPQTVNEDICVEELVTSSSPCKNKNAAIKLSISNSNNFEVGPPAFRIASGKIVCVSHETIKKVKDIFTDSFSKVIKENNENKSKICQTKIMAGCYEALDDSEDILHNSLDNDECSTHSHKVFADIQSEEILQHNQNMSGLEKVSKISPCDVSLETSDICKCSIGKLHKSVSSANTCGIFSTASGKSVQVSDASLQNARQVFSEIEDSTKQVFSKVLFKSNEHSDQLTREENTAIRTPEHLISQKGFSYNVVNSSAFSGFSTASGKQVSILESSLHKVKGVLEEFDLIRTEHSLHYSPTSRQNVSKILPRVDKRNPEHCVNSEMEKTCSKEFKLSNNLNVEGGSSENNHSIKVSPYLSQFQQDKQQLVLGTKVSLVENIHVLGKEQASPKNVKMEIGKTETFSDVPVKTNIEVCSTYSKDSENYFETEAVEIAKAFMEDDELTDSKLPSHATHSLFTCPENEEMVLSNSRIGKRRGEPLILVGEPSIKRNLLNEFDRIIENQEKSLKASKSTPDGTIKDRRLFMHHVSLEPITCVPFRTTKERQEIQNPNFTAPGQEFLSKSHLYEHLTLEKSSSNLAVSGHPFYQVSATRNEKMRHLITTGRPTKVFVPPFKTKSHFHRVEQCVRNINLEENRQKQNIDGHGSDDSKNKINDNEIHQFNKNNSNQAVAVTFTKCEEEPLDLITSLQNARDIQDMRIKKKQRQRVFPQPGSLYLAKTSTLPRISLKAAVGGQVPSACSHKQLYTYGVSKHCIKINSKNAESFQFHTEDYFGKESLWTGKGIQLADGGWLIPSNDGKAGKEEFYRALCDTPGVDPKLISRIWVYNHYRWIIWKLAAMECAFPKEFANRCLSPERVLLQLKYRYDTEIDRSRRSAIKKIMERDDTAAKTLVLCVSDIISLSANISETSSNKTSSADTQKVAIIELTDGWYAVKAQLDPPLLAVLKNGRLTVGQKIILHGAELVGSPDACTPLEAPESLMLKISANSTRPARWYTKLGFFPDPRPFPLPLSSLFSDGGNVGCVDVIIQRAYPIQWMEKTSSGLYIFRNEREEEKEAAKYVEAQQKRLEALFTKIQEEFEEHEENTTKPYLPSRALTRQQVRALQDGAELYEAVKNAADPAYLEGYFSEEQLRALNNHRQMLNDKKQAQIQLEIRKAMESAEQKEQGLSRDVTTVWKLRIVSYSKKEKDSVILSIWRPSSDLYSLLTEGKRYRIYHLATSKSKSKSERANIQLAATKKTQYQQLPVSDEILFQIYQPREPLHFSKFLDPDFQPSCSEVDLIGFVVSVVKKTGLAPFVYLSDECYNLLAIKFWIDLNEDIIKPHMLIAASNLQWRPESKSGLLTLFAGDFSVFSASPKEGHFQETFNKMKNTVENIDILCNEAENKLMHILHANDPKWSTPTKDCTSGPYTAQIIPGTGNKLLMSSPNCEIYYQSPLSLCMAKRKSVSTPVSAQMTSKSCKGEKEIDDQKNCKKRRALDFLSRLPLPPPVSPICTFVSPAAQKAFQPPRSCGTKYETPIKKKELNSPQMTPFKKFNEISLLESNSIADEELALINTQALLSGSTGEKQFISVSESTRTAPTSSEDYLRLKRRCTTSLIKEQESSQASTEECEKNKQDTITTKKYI
UniProt O43521, whole entry, looked up: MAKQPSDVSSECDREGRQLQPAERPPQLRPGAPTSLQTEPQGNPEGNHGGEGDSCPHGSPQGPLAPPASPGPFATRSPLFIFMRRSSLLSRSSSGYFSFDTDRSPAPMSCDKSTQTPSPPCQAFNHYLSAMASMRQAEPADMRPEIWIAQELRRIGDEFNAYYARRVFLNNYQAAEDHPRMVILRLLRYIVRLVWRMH

Experiments:
Experiment in all cases: log2 fold change, soluble protein after heating vs DMSO (PISA); higher = thermal stabilisation; K562 lysate, 10 uM; active = over 0.2 and 3.5 SD of the protein, either way, in both replicates (recomputed)
lapatinib = compound: CS(=O)(=O)CCNCc1ccc(-c2ccc3ncnc(Nc4ccc(OCc5cccc(F)c5)c(Cl)c4)c3c2)o1 [lapatinib]
Summary of the method: (§1)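 Following dounce homogenisation of K562 pellets in PBS pH 7.4 with 1 mM MgCl2, crude extract at 1 mg/mL protein was incubated for 30 min with 10 μM compound. Aliquots were then heated for 3 min over 48°C-58°C and pooled, NP-40 was added to 0.5% at 4°C, and soluble protein was recovered as the supernatant at 21,000xg for 90 min. Channel-sum-equalised TMTpro 16plex LC-MS/MS quantified this protein. Each value, from duplicates, is a log-two fold change in thermal stability relative to solvent controls.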

[1] = compound: C[C@H](C1=CC=C(C=C1)C(=O)NC2=C3C=CNC3=NC=C2)N
Summary of the method: as §1

gandotinib = compound: Cc1cc(Nc2cc(CN3CCOCC3)c3nc(C)c(Cc4ccc(Cl)cc4F)n3n2)n[nH]1 [gandotinib]
Summary of the method: as §1

tozasertib = compound: Cc1cc(Nc2cc(N3CCN(C)CC3)nc(Sc3ccc(NC(=O)C4CC4)cc3)n2)n[nH]1 [tozasertib]
Summary of the method: as §1

[2] = compound: Cc1cccc(CC(=O)N2CCc3c2ccc(-c2cn(C)c4ncnc(N)c24)c3F)n1
Summary of the method: as §1

nilotinib = compound: Cc1cn(-c2cc(NC(=O)c3ccc(C)c(Nc4nccc(-c5cccnc5)n4)c3)cc(C(F)(F)F)c2)cn1 [nilotinib]
Summary of the method: as §1

[3] = compound: Cc1nc(Nc2n[nH]c3c2CN(C(=O)N[C@H](CN(C)C)c2ccccc2)C3(C)C)c2sccc2n1
Summary of the method: as §1

[4] = compound: Cc1ncc(-c2ccnc(Nc3ccc(S(C)(=O)=O)cc3)n2)n1C(C)C
Summary of the method: as §1

tipifarnib = compound: Cn1cncc1[C@@](N)(c1ccc(Cl)cc1)c1ccc2c(c1)c(-c1cccc(Cl)c1)cc(=O)n2C [tipifarnib]
Summary of the method: as §1

[5] = compound: NC(=O)c1cnc(N[C@@H]2CCCC[C@@H]2N)nc1Nc1cccc(-n2nccn2)c1
Summary of the method: as §1

[6] = compound: NC1(c2ccc(-c3nc4ccn5c(=O)[nH]nc5c4cc3-c3ccccc3)cc2)CCC1
Summary of the method: as §1

crizotinib = compound: C[C@@H](Oc1cc(-c2cnn(C3CCNCC3)c2)cnc1N)c1c(Cl)ccc(F)c1Cl [crizotinib]
Summary of the method: as §1

duvelisib = compound: C[C@H](Nc1ncnc2nc[nH]c12)c1cc2cccc(Cl)c2c(=O)n1-c1ccccc1 [duvelisib]
Summary of the method: as §1

doramapimod = compound: Cc1ccc(-n2nc(C(C)(C)C)cc2NC(=O)Nc2ccc(OCCN3CCOCC3)c3ccccc23)cc1 [doramapimod]
Summary of the method: as §1

dasatinib = compound: Cc1nc(Nc2ncc(C(=O)Nc3c(C)cccc3Cl)s2)cc(N2CCN(CCO)CC2)n1 [dasatinib]
Summary of the method: as §1

[7] = compound: Cn1cc(-c2ccc3c(c2)CCN3C(=O)Cc2cccc(C(F)(F)F)c2)c2c(N)ncnc21
Summary of the method: as §1

quisinostat = compound: Cn1cc(CNCC2CCN(c3ncc(C(=O)NO)cn3)CC2)c2ccccc21 [quisinostat]
Summary of the method: as §1

[8] = compound: NC(=O)Nc1cc(-c2cccc(F)c2)sc1C(=O)N[C@H]1CCCNC1
Summary of the method: as §1

pictilisib = compound: CS(=O)(=O)N1CCN(Cc2cc3nc(-c4cccc5[nH]ncc45)nc(N4CCOCC4)c3s2)CC1 [pictilisib]
Summary of the method: as §1

bafetinib = compound: Cc1ccc(NC(=O)c2ccc(CN3CC[C@H](N(C)C)C3)c(C(F)(F)F)c2)cc1Nc1nccc(-c2cncnc2)n1 [bafetinib]
Summary of the method: as §1

Measured: log2 fold change

BIN1 (UniProt O00499)
inactive: lapatinib -0.106 | [1] -0.093 | gandotinib 0.122 | tozasertib -0.137 | [2] 0.092 | nilotinib 0.177 | [3] 0.105 | [4] -0.099 | tipifarnib 0.131 | [5] -0.021 | [6] -0.169

BRMS1 (UniProt Q9HCU9)
inactive: lapatinib -0.024 | crizotinib 0.07 | duvelisib 0.042 | tozasertib -0.042 | doramapimod 0.513 | nilotinib -0.042 | [3] 0.13 | dasatinib 0.022 | [4] -0.037 | [7] -0.005 | quisinostat 0.099 | tipifarnib 0.008 | [8] 0.106 | [5] 0.002 | [6] -0.041

BAZ1A (UniProt Q9NRL2)
inactive: pictilisib 0.04 | crizotinib -0.103 | [1] -0.068 | duvelisib 0.04 | gandotinib 0.026 | tozasertib 0.087 | doramapimod -0.001 | bafetinib -0.031 | [2] -0.026 | nilotinib 0.075 | [3] 0.07 | dasatinib 0.019 | [4] 0.046 | [7] -0.043 | quisinostat -0.057 | tipifarnib 0 | [8] 0.025 | [6] -0.09

BAP18 isoform 3 (UniProt Q8IXM2)
inactive: lapatinib 0.056 | [1] -0.001 | gandotinib -0.059 | tozasertib -0.047 | [2] -0.059 | nilotinib 0.057 | [3] -0.017 | [4] -0.005 | tipifarnib 0.262 | [5] 0.069 | [6] 0.03

BRI3BP (UniProt Q8WY22)
inactive: lapatinib -0.023 | pictilisib 0.009 | [1] -0.005 | duvelisib 0.103 | gandotinib 0.037 | tozasertib 0.139 | bafetinib -0.049 | [2] 0.026 | nilotinib -0.02 | [3] -0.037 | dasatinib -0.045 | [4] 0.115 | [7] -0.05 | tipifarnib 0.189 | [5] -0.057 | [6] 0.088

BAZ2A (UniProt Q9UIF9)
inactive: lapatinib -0.123 | crizotinib -0.034 | [1] -0.133 | gandotinib 0.26 | tozasertib 0.109 | doramapimod -0.014 | [2] 0.16 | nilotinib -0.138 | [3] 0.094 | [4] -0.028 | quisinostat 0.05 | tipifarnib 0.077 | [8] 0.01 | [5] 0.113 | [6] 0.102

BRIP1 (UniProt Q9BX63)
inactive: lapatinib -0.068 | crizotinib 0 | [1] -0.025 | duvelisib -0.109 | gandotinib 0.005 | tozasertib 0.133 | doramapimod 0.046 | [2] 0 | nilotinib 0.169 | [3] 0.073 | dasatinib 0.13 | [4] -0.212 | [7] 0.15 | quisinostat -0.151 | tipifarnib -0.105 | [8] -0.057 | [5] -0.013 | [6] -0.038

2 entries picked at random from those above:
BAZ1A (UniProt Q9NRL2)
inactive: pictilisib 0.04 | crizotinib -0.103 | [1] -0.068 | duvelisib 0.04 | gandotinib 0.026 | tozasertib 0.087 | doramapimod -0.001 | bafetinib -0.031 | [2] -0.026 | nilotinib 0.075 | [3] 0.07 | dasatinib 0.019 | [4] 0.046 | [7] -0.043 | quisinostat -0.057 | tipifarnib 0 | [8] 0.025 | [6] -0.09

BRI3BP (UniProt Q8WY22)
inactive: lapatinib -0.023 | pictilisib 0.009 | [1] -0.005 | duvelisib 0.103 | gandotinib 0.037 | tozasertib 0.139 | bafetinib -0.049 | [2] 0.026 | nilotinib -0.02 | [3] -0.037 | dasatinib -0.045 | [4] 0.115 | [7] -0.05 | tipifarnib 0.189 | [5] -0.057 | [6] 0.088

(cont.)

BAK1 (UniProt Q16611)
inactive: lapatinib -0.013 | crizotinib 0.088 | [1] 0.115 | duvelisib 0.053 | gandotinib -0.028 | tozasertib -0.135 | doramapimod -0.252 | [2] -0.019 | dasatinib -0.051 | [7] -0.027 | quisinostat 0.045 | [8] 0.038 | [5] -0.106 | [6] 0.013

BEND3 (UniProt Q5T5X7)
inactive: lapatinib -0.032 | crizotinib -0.083 | [1] -0.07 | duvelisib 0.042 | gandotinib -0.002 | tozasertib -0.114 | doramapimod 0.182 | [2] 0.085 | dasatinib -0.027 | [7] 0.056 | quisinostat -0.233 | [8] 0.159 | [5] 0.056 | [6] 0.014

BTK isoform 2 (UniProt Q06187)
active: [8] 0.294
inactive: lapatinib -0.015 | pictilisib -0.041 | [1] -0.148 | duvelisib 0.018 | gandotinib 0.101 | tozasertib -0.012 | doramapimod 0.031 | bafetinib -0.043 | [2] 0.178 | nilotinib 0.016 | [3] -0.002 | [4] 0.015 | [7] -0.005 | quisinostat -0.05 | tipifarnib -0.021 | [5] 0.032 | [6] -0.049

BRCA2 (UniProt P51587)
inactive: pictilisib 0.064 | crizotinib 0 | [1] -0.191 | duvelisib 0.11 | gandotinib 0.078 | tozasertib 0.05 | doramapimod -0.034 | bafetinib 0.035 | [2] 0.201 | nilotinib -0.278 | [3] -0.229 | dasatinib -0.056 | [4] 0.253 | [7] -0.038 | quisinostat -0.004 | tipifarnib -0.12 | [8] 0.058 | [6] 0.144

BCL9 (UniProt O00512)
inactive: pictilisib 0.002 | crizotinib 0.008 | [1] -0.086 | gandotinib 0.081 | doramapimod -0.039 | bafetinib 0.07 | [2] 0.027 | quisinostat -0.024 | [8] 0.034 | [6] -0.006

BAHCC1 (UniProt Q9P281)
inactive: lapatinib -0.117 | crizotinib -0.191 | duvelisib 0.002 | gandotinib 0.006 | tozasertib 0.052 | doramapimod 0.137 | [2] 0.234 | nilotinib -0.191 | [3] 0.019 | dasatinib -0.144 | [4] -0.141 | [7] -0.039 | quisinostat -0.328 | tipifarnib 0.031 | [8] -0.053 | [5] 0.021 | [6] 0.07
active: [1] -0.956

BCL2L11 (UniProt O43521)
inactive: pictilisib 0.379 | crizotinib -0.093 | [1] 0.069 | gandotinib 0.009 | doramapimod 0.051 | bafetinib -0.049 | [2] -0.005 | quisinostat -0.102 | [8] 0.119
